These are yes or no findings as the source states them, for the method shown.

The record followed here is publication doi:10.1101/2021.02.07.430159.

The experiment addresses GST-MLLE protein (MLLE domain of PABPC1). Nature of the experiment: SPR.

B1: super-PAM2-Phe10Ala peptide (peptide)
peptide: SNLNPNAPEAHPGVPWKGLQ
B1: the binding entry is “no binding”.
